Source: PubChem BioAssay AID624297 (National Center for Advancing Translational Sciences (NCATS), 2012)
Among all 340,000 compounds or so, about 6,200 (1.8%) were called active. The shares of active, inactive and inconclusive entries below differ from those in the screen. The call rests on the fitted dose curve; in most records, active means well fitted activation curve with a large enough effect; inconclusive means small, poorly fitted or top-dose-only effect; inactive means no such curve, though single readings can be large or run the other way. Where the call is inconclusive, the potency comes from a doubtful curve fit.

assay: A quantitative high throughput screen for small molecules that induce DNA re-replication in SW480 colon adenocarcinoma cells.; further: nearly all actives have a fitted effect of over 55% in size; details: Hoechst DNA content imaging, 48 h; series mostly up to 46.1 µM
How it was run: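 Image-based DNA-content assay: after two days of treatment, nuclei were labelled with the DNA dye Hoechst and imaged, and hits were compounds raising the count of nuclei showing high fluorescence intensity.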
Potency means the concentration at half of the fitted maximal effect.

SMILES | Potency
Cc1cccc(-c2sc(Nc3ccccc3)n[n+]2-c2ccc(F)cc2)c1 | inactive
O=C(COc1cccc2ccccc12)N/N=C/c1ccccc1OCc1ccc(C(=O)O)cc1 | inactive
CCOC(=O)C1=NN(C(=O)Nc2cccc(C(F)(F)F)c2)C2C(=O)N(c3cccc(C(F)(F)F)c3)C(=O)C12 (centres undefined) | inconclusive: 4.61 µM [activator, full curve, poor fit]
CC(NC(=O)CNC(=S)N(Cc1ccccc1)Cc1cccnc1)c1ccccc1 (centres undefined) | inactive
CCOc1ccc(OCCC(=O)N(CCC(C)C)c2c(N)n(Cc3ccccc3)c(=O)[nH]c2=O)cc1 | inconclusive: 25.9 µM [activator, partial curve, poor fit]
O=C(CSc1nc2ccccc2n1CC(=O)N1CCCC1)N1CCN(C(=O)c2ccco2)CC1 | inactive
C/C(=N\NC(=O)c1ccccc1F)c1ccc2c(c1)Nc1ccccc1S2 | inconclusive: 14.6 µM [activator, partial curve]
CCOC(=O)C1(Cc2ccc(OC)cc2)CCN(C(=O)c2ccc3[nH]ccc3c2)CC1 | inconclusive: 29.1 µM [activator, partial curve, poor fit]
COc1ccc(N2CCN(C(=O)c3cccnc3SCc3cccc(Br)c3)CC2)cc1 | inconclusive: 32.6 µM [activator, partial curve, poor fit]
COC(=O)CCSC(=S)N1CCOCC1 | inconclusive: 20.6 µM [activator, single point]
COc1ccc(C(=O)c2no[n+]([O-])c2C(=O)c2ccc(OC)cc2)cc1 | inconclusive: 0.13 µM [activator, full curve, poor fit]
COC(=O)COc1ccc(-c2nccc(-c3ccc(Br)cc3)n2)cc1 | inconclusive: 29.1 µM [activator, single point]
O=C1CC(c2cccc(O)c2)Oc2ccccc21 (centres undefined) | inactive
c1ccn(-c2ccc(N3CCOCC3)cc2)c1 | inconclusive: 29.1 µM [activator, single point]
Cc1ccccc1NC(=O)c1ccc(F)c(S(=O)(=O)N2CCN(c3ccccn3)CC2)c1 | inactive
COc1ccc(N(C)S(=O)(=O)c2ccc(Cl)c(C(=O)NNC(=O)c3ccccc3O)c2)cc1 | inconclusive: 29.1 µM [activator, single point]
O=C(/C=C/c1ccc(O)c([N+](=O)[O-])c1)c1ccc2ccccc2c1 | inconclusive: 29.1 µM [activator, single point]
CCOCCCn1c(=S)[nH]c2cc(C(=O)NCCc3ccc(OC)c(OC)c3)ccc2c1=O | inconclusive: 0.461 µM [activator, partial curve, poor fit]
CC(=O)Nc1ccc(NC(=O)CSc2nc(C)nc3sc(C)c(C)c23)cc1 | inactive
Cc1cccc(NC(=O)CSc2nc3ccccc3nc2N2CC(C)OC(C)C2)c1 (centres undefined) | inconclusive: 16.4 µM [activator, partial curve, poor fit]
CCCCc1ccc(NC(=O)N2CCN(c3cc(C)nc4ccccc34)CC2)c(C)c1 | active: 20.6 µM
COc1cccc(NC(=O)CSc2nc3scc(C)c3c(=O)[nH]2)c1 | inactive

By substructure, the entries above with two or more sulfur atoms (3)
SMILES | Potency
COC(=O)CCSC(=S)N1CCOCC1 | inconclusive: 20.6 µM [activator, single point]
CC(=O)Nc1ccc(NC(=O)CSc2nc(C)nc3sc(C)c(C)c23)cc1 | inactive
COc1cccc(NC(=O)CSc2nc3scc(C)c3c(=O)[nH]2)c1 | inactive

For reference, 2 of the compounds above:
SMILES | Potency
O=C(/C=C/c1ccc(O)c([N+](=O)[O-])c1)c1ccc2ccccc2c1 | inconclusive: 29.1 µM [activator, single point]
CCOCCCn1c(=S)[nH]c2cc(C(=O)NCCc3ccc(OC)c(OC)c3)ccc2c1=O | inconclusive: 0.461 µM [activator, partial curve, poor fit]

Additional results follow.

SMILES | Potency
COc1ccc(CCN(Cc2cc3ccc(C)cc3n3nnnc23)C(C)=O)cc1OC | inconclusive: 18.4 µM [activator, partial curve, poor fit]
CCOC(=O)C(CCSC)Nc1nc(Cl)nc(Nc2ccc(Cl)cc2)n1 (centres undefined) | inactive
O=C(NC(=S)Nc1ccc(N2CCOCC2)c(Cl)c1)c1cncc(Br)c1 | inconclusive: 3.26 µM [activator, partial curve, poor fit]
O=c1c(O)c(-c2cccs2)oc2ccccc12 | inconclusive: 18.4 µM [activator, single point]
Clc1cccc(/C(Cc2nc3ccccc3[nH]2)=N\Nc2ccccc2)c1 | inconclusive: 32.6 µM [activator, partial curve, poor fit]
C=CCn1c(O)c(C2=c3ccccc3=NC2=O)c2ccccc21 | inconclusive: 20.6 µM [activator, single point]
CCn1cc(/C=C(\NC(=O)c2ccc(OC)cc2)C(=O)N2CCN(C)CC2)c2ccccc21 | inconclusive: 2.06 µM [activator, partial curve, poor fit]
O=S(=O)(Nc1cc(Cl)ccc1-n1cncn1)c1cc(Br)ccc1Br | inactive
COc1cc(/C=N/NC(=O)c2ccc(CSc3nc4ccccc4[nH]3)cc2)cc(OC)c1OC | inconclusive: 4.11 µM [activator, single point]
O=C(N/N=C/c1ccc([N+](=O)[O-])o1)c1ccccc1-n1cccc1 | active: 2 µM
COc1cccc(/C=N/NC(=O)c2[nH]nc3c2CCc2ccccc2-3)c1O | active: 3.26 µM
Fc1ccc2cnc(-c3ccccc3)c(-c3cccc(C(F)(F)F)c3)c2c1 | inconclusive: 0.0259 µM [activator, full curve, poor fit]
Cc1ccc(NC(=O)COC(=O)CCc2nc3ccccc3c(=O)[nH]2)c(Br)c1 | inconclusive: 6.51 µM [activator, single point]
CCOC(=O)C1=CN(Cc2cccc(F)c2)S(=O)(=O)NC1c1ccc(Br)cc1F (centres undefined) | inactive
CCSc1nnc(NC(=O)C2CCN(C(=O)c3ccc(F)cc3)CC2)s1 | inactive
CCNC(=S)N/N=C/c1cc(Br)cc(Br)c1OC | inconclusive: 3.66 µM [activator, full curve]
CCOc1ccc2c(c1)OC(c1ccc(C)cc1)(C(F)(F)F)NC2=O (centres undefined) | inconclusive: 5.17 µM [activator, full curve, poor fit]
COC(=O)[C@]1(C)N[C@H](CN(C)C(=O)C2CCCCC2)[C@@H]2C(=O)N(C)C(=O)[C@@H]21 | inactive
CCCCCCCCCCCCCCCC[n+]1ccc(/C=N/O)cc1 | active: 20.6 µM
C(=N\Nc1nccc(-c2cccnc2)n1)/c1ccccc1 | inactive
C=CCNC(=O)/C(C#N)=C/c1ccccc1Cl | inactive
COc1ccc2c(c1)N(C[C@H](C)CN(C)C)c1ccccc1S2 | inconclusive: 25.9 µM [activator, single point]
